Reference: PubChem BioAssay AID540276 (National Center for Advancing Translational Sciences (NCATS), 2011)
Values joined by “and” are separate entries in the source; they are usually repeats but may differ in a detail not shown here. Equal entries are not always repeated. The campaign covered roughly 300,000 compounds. About 5,400 (1.8%) were called active. Inconclusive results, whose numbers are uncertain, are shown with a selection of clear calls. The call rests on the fitted dose curve; tested in HEK293 cells. Potencies beside an inconclusive call are fits to weak or partial responses and may not hold up. A structure can be active in one record and inactive in another.

Experiment: qHTS for inhibitors of binding or entry into cells for Marburg Virus
Settings: Marburg virus pseudotyped entry inhibition, cell reporter; activity change, negative = inhibition: at 37.8 µM (top of the series) unless noted
On the % scale 0 is the no-effect control and ±100 the full control effect; potency means the concentration at half of the fitted maximal effect.

Structure (SMILES)	Potency	activity change, negative = inhibition
CCCCn1c(SCc2ncc(-c3ccccc3)o2)nc2cc(S(N)(=O)=O)ccc21	inconclusive: 4.61 µM [inhibitor, partial curve]	
COc1cc2ccccc2cc1C(=O)NCC(c1cccs1)N(C)C (stereo not drawn)	inconclusive: 35.5 µM [inhibitor, single point]	
O=S(=O)(c1cnc(Cl)c(Br)c1)N1CCc2ccccc21		inactive: -0.671% [at 46.1 µM]
COc1ccc(CCC(=O)OCC(=O)N2CCN(S(=O)(=O)c3ccc(C)cc3C)CC2)cc1	inconclusive: 28.2 µM [inhibitor, partial curve, poor fit]	
Cc1ccc(Cl)cc1NC(=O)CSCc1cnn(-c2ccccc2)c1-n1cccc1	inconclusive: 11.2 µM [inhibitor, partial curve, poor fit]	
Cc1ccn2cc(C(=O)Nc3ccc4c(c3)OCCO4)nc2c1	inconclusive: 18.3 µM [inhibitor, single point]	
Cc1ccc(CNC(=O)Cc2nc3nc(C)cc(C)n3n2)cc1	inconclusive: 0.282 µM [activator, partial curve, poor fit]	
CCCCn1c(N)c(N(CC(C)C)C(=O)c2ccc(-c3ccc([N+](=O)[O-])cc3)o2)c(=O)[nH]c1=O		inactive: 29.5%
COc1ccccc1CNC(=O)c1cc(C(C)=O)c[nH]1		inactive: -9.36% [at 46.1 µM]
Cc1c(C(=O)/C=C/N(C)C)nnn1-c1ccc(F)c(Cl)c1	inconclusive: 12.6 µM [inhibitor, partial curve, poor fit]	
Cc1ccc(-c2nn3c(C)nnc3s2)cc1NCc1c(F)cccc1Cl	active: 9.2 µM	
c1ccc(CN2CCc3nc4ccccc4cc3C2)cc1		inactive: 1.67% [at 46.1 µM]
Oc1ccc(CN2CCCCC2)nc1-c1ccccc1		inactive: 2.35%
COc1ccccc1NC(=O)CN1C(=O)CCSc2ccccc21		inactive: -2.25% [at 46.1 µM]
C=CCn1cc(C(=O)NCCOC)c(=O)c2cc(S(=O)(=O)N(CC)CC)ccc21	inactive	
CCOC(=O)N1CCC(N2Cc3cccc(C(=O)Nc4ccc(F)cc4)c3C2=O)CC1		inactive: -2.27%
COc1ccc(-c2noc(CCC(=O)NCCCN3CCC(Cc4ccccc4)CC3)n2)cc1	inactive and inconclusive: 35.5 µM [inhibitor, single point]	

Copied from the listing, two compounds:
Structure (SMILES)	Potency	activity change, negative = inhibition
COc1ccccc1CNC(=O)c1cc(C(C)=O)c[nH]1		inactive: -9.36% [at 46.1 µM]
Cc1c(C(=O)/C=C/N(C)C)nnn1-c1ccc(F)c(Cl)c1	inconclusive: 12.6 µM [inhibitor, partial curve, poor fit]	

Next records follow:

Structure (SMILES)	Potency	activity change, negative = inhibition
c1cc(-c2nnc3sc(C4CCCCC4)nn23)ccn1		inactive: -2.78%
Cc1c(CC(=O)N2CCN(C(=O)C3COc4ccccc4O3)CC2)c(=O)oc2c(O)c(O)ccc12 (stereo not drawn)	inconclusive: 12.6 µM [inhibitor, partial curve, poor fit]	
COc1ccc(NC(=O)CN(C)Cc2c(F)cccc2Cl)cc1S(=O)(=O)N1CCCCC1	inconclusive: 35.5 µM [inhibitor, single point]	
Cc1nnc(SCC(=O)c2ccc(C(C)C)cc2)s1	inconclusive: 1 µM [activator, full curve, poor fit]	
CCOC(=O)C1CCN(C(=O)CSc2cc(=O)n(CC)c3ccccc23)CC1	inactive	
CC(C)C(O)(CC#CCN1CCCC1)c1ccccc1 (stereo not drawn)	inconclusive: 12.6 µM [inhibitor, partial curve, poor fit]	
Cc1nnc(SCC(=O)Nc2ccc(C(N)=O)cc2)n1-c1ccccc1	inconclusive: 3.98 µM [activator, full curve, poor fit]	
C(=N\Nc1nncc2ccccc12)/c1ccccn1	inconclusive: 1.58 µM [inhibitor, full curve, poor fit]	
COc1cccc(/C=C2\SC(=O)N(CC(=O)NCCCn3ccnc3)C2=O)c1		inactive: -2.16% [at 46.1 µM]
CC(=O)c1ccc(OC(C)C(=O)NC2CCCCC2C)cc1 (stereo not drawn)	inconclusive: 28.2 µM [activator, single point]	
O=C(c1ccccc1Br)N(Cc1ccccc1F)C1CCS(=O)(=O)C1 (stereo not drawn)		inactive: -4.32% [at 46.1 µM]
CN1CCN(C(=O)c2ccc3c(c2)N(Cc2ccc(Cl)cc2)C(=O)c2ccccc2S3(=O)=O)CC1		inactive: 0.0456% [at 46.1 µM]
CN(CC(=O)Nc1ccc2c(c1)OCO2)S(=O)(=O)c1cccs1	inconclusive: 4.47 µM [activator, partial curve, poor fit]	
CC(C)NC[C@H](O)COc1ccc(CC(N)=O)cc1	inactive and active: 112 nM	
Cc1ccc(OCc2nnc(SCC(=O)c3ccccc3)n2Cc2ccco2)cc1	inconclusive: 14.1 µM [inhibitor, partial curve, poor fit]	
CC(=O)Nc1ccc(S(=O)(=O)NCC(=O)OCC(=O)NC23CC4CC(CC(C4)C2)C3)cc1	inconclusive: 1.78 µM [activator, partial curve, poor fit]	
